According to PubChem BioAssay AID2685 (National Center for Advancing Translational Sciences (NCATS), 2010):
The list shows a part of the results. The main result of the screen is listed elsewhere. These columns were measured beside it and carry no call. Compounds called inactive in the main read-out are mostly missing here. The note in brackets gives the kind of curve behind each potency; many fits are weak.

Test: qHTS Assay for Lipid Storage Modulators in Drosophila S3 Cells;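 as to cell number change: cells counted by Cell Tracker Red CMTPX staining in the red channel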
Settings: BODIPY lipid droplet fluorescence, 18-24 h; for cell number change: measured here: cell count max response, cells fed with added oleic acid
Method in brief: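 Drosophila S3 cells loaded with oleic acid (400 uM, as added) and compounds at several concentrations; lipid droplets imaged by 488-nm laser-scanning cytometry, 500–530 nm intensity and object ratio to cell channel. Percent activity normalized to 20 uM Triacsin C.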

[1] = measured here: cell number channel AC50, cells fed with added oleic acid
[2] = measured here: lipid fluorescence (Fed channel) AC50, cells fed with added oleic acid

Row | SMILES | cell number change [%] | AC50 [1] | AC50 [2]
1 | Cc1ccc2c(c1)N(C)/C(=C/c1cccc[n+]1C)S2 | -54.3 | 7.31 µM [falling, partial curve] | 6.51 µM [falling, partial curve]
2 | COCc1cc(CN2CCN(C)CC2)c(O)c2ncccc12 | -102 | 29.1 µM [falling, single point] | 1.3 µM [falling, partial curve]
3 | CCS(=O)(=O)c1ccc2oc(SCC(=O)c3ccco3)nc2c1 | -4.32 | – | –
4 | Cc1ccc(C(=O)OCC(=O)Nc2ccc(Cl)cn2)s1 | 8.11 | – | –
5 | O=C(NCCc1ccco1)c1cc(COc2cccc(C(F)(F)F)c2)on1 | 12.9 | – | –
6 | CCOc1ccc(N2CC(=O)SC2=S)cc1 | -20.4 | 3.66 µM [falling, single point] | 2.91 µM [falling, partial curve, poor fit]
7 | C=CCn1c(CSc2nc3ccccc3s2)nnc1SCC(=O)NCc1cccnc1 | -18.6 | – | –
8 | O=C(NCCCNC1CCCCC1)c1ccc(/C=N/O)nc1 | -168 | 29.1 µM [falling, single point] | 20.6 µM [falling, partial curve]
9 | C/C(=N\NC(=O)COc1ccccc1-c1ccccc1)c1cccnc1 | 37.9 | 0.461 µM [rising, full curve] | 0.651 µM [rising, full curve, poor fit]
10 | O=C(CCCO)NNc1c2ccccc2nc2ccccc12 | -6.95 | – | 29.1 µM [falling, single point]
11 | CC(CC(=O)Nc1cccnc1)c1ccccc1 (centres undefined) | 32.1 | – | –
12 | CC(Oc1cc2oc(=O)c3c(c2cc1Cl)CCC3)C(=O)NCc1ccccn1 (centres undefined) | 10.9 | – | 1.84 µM [falling, full curve]
13 | CCC(CC)C(=O)Nc1c(C)n(C)n(-c2ccccc2)c1=O | -42.8 | 0.651 µM [falling, full curve] | –
14 | Cc1nc2cc(-c3ccccc3)[nH]n2c(=O)c1C | 7.61 | – | 10.3 µM [rising, partial curve]
15 | COc1cc(/C=C/C(=O)OCC(=O)Nc2sc3c(c2C#N)CCC(C)C3)ccc1OCC#N (centres undefined) | 24.2 | – | 29.1 µM [falling, single point]
16 | CCSc1ccccc1C(=O)Nc1cccc(OC)c1 | 51.1 | 5.8 µM [rising, partial curve] | –
17 | Cc1ccc(S(=O)(=O)n2c(N)nc3ccccc32)cc1 | 1.76 | – | 29.1 µM [rising, single point]
18 | O=C(NCc1ccccc1)C(c1cccnc1)N(C(=O)c1csnn1)c1ccc(F)cc1 (centres undefined) | -19 | – | –
19 | CC(=O)N(/N=C1\Sc2ccccc2C1=O)c1ccc(C)cc1C | -11 | – | –

Row | SMILES | cell number change [%] | AC50 [1] | AC50 [2]
20 | O=C(Cc1ccc(Cl)cc1)Nc1ccc(Br)cn1 | -11.1 | – | 29.1 µM [rising, single point]
21 | Cc1c(Nc2cc(N3CCOCC3)c3nonc3c2[N+](=O)[O-])c(=O)n(-c2ccccc2)n1C | -45.4 | 0.651 µM [falling, full curve] | 0.231 µM [falling, full curve]
22 | Cc1ccc(S(=O)(=O)NCC(=O)OC(C)C(=O)NC2CCCCC2C)cc1C (centres undefined) | -10.3 | – | 0.366 µM [rising, partial curve, poor fit]
23 | C=CCOc1nc(-c2ccccc2Cl)nc2ccccc12 | 15.9 | 2.06 µM [rising, single point] | –
24 | COC(=O)[C@@]12CCCN1[C@H](c1ccc(-c3ccc(Cl)c(Cl)c3)cc1)[C@H]1C(=O)N(C)C(=O)[C@H]12 | -56.9 | 16.4 µM [falling, partial curve] | –
25 | O=C(/C=C(\c1ccc(Cl)cc1)n1cncn1)c1ccc(Cl)cc1 | -11.5 | – | 0.366 µM [rising, full curve, poor fit]
26 | COc1ccc2c(c1OC)C(=O)N1c3ccccc3SC21 (centres undefined) | 26.4 | – | 1.64 µM [rising, partial curve]
27 | O=C(NC1CCc2ccccc21)C1CCN(S(=O)(=O)c2ccc(Cl)cc2)CC1 (centres undefined) | 6.31 | – | 32.6 µM [rising, partial curve, poor fit]
28 | Cc1cc(C)c(C)c(S(=O)(=O)NC(C(=O)O)C(C)C)c1C (centres undefined) | -103 | 18.4 µM [falling, partial curve] | –
29 | COc1cccc(C(=O)NC(=O)Nc2cc(C)on2)c1 | 38.6 | 2.91 µM [rising, partial curve, poor fit] | 3.26 µM [rising, partial curve]
30 | COc1cc(OC)c(OC)cc1/C=C/C(=O)c1ccc(NS(=O)(=O)c2ccc(C)cc2)cc1 | 40.1 | 3.66 µM [rising, partial curve] | 5.17 µM [rising, partial curve]
31 | CCCCOc1ccc(/C(O)=C2/C(=O)C(=O)N(CCN(C)C)C2c2ccc(O)c(OC)c2)cc1 (centres undefined) | -0.0978 | – | 6.51 µM [rising, single point]
32 | CC(C)(C)C(=O)Nc1ccc(-c2cn3ccsc3n2)cc1 | 7.59 | – | 18.4 µM [falling, single point]
33 | O=C(CC1SC(=NCC2CCCO2)NC1=O)Nc1cc([N+](=O)[O-])ccc1Cl (centres undefined) | 0.406 | – | 0.0651 µM [falling, full curve, poor fit]
34 | Cc1ccc(NC(=O)COC(=O)c2ccco2)cc1C | 2.54 | – | 0.0092 µM [rising, full curve, poor fit]
35 | CN1C(=O)C2(Oc3ccccc3C3CC(c4ccccc4)=NN32)c2ccccc21 (centres undefined) | 0.774 | – | 7.31 µM [rising, single point]
36 | COc1ccccc1[C@]1(C)ON(c2ccccc2C(F)(F)F)C1=O | -39.7 | 8.2 µM [falling, single point] | 20.6 µM [falling, single point]
37 | CC(=O)c1cccc(NC(=O)Nc2ccc(C(=O)N3CCOCC3)cc2)c1 | 22.4 | – | 29.1 µM [rising, single point]
38 | COc1ccc2cc(CCl)c(Cl)nc2c1 | -33.9 | 3.66 µM [falling, single point] | 6.51 µM [falling, single point]

In the list so far, 2 contain a thiophene ring, fused or not:
Row | SMILES | cell number change [%] | AC50 [1] | AC50 [2]
4 | Cc1ccc(C(=O)OCC(=O)Nc2ccc(Cl)cn2)s1 | 8.11 | – | –
15 | COc1cc(/C=C/C(=O)OCC(=O)Nc2sc3c(c2C#N)CCC(C)C3)ccc1OCC#N (centres undefined) | 24.2 | – | 29.1 µM [falling, single point]
